Assay results reported in patent US7517517B2 (Janssen Pharmaceutica N.V., priority 2002, dated 2009).
The name of at least one read-out is uncertain.

By UniProt entry, the sequences of proteins in these tests, tags left out. Residues count along the entry.
UniProt P31424, 21-1203: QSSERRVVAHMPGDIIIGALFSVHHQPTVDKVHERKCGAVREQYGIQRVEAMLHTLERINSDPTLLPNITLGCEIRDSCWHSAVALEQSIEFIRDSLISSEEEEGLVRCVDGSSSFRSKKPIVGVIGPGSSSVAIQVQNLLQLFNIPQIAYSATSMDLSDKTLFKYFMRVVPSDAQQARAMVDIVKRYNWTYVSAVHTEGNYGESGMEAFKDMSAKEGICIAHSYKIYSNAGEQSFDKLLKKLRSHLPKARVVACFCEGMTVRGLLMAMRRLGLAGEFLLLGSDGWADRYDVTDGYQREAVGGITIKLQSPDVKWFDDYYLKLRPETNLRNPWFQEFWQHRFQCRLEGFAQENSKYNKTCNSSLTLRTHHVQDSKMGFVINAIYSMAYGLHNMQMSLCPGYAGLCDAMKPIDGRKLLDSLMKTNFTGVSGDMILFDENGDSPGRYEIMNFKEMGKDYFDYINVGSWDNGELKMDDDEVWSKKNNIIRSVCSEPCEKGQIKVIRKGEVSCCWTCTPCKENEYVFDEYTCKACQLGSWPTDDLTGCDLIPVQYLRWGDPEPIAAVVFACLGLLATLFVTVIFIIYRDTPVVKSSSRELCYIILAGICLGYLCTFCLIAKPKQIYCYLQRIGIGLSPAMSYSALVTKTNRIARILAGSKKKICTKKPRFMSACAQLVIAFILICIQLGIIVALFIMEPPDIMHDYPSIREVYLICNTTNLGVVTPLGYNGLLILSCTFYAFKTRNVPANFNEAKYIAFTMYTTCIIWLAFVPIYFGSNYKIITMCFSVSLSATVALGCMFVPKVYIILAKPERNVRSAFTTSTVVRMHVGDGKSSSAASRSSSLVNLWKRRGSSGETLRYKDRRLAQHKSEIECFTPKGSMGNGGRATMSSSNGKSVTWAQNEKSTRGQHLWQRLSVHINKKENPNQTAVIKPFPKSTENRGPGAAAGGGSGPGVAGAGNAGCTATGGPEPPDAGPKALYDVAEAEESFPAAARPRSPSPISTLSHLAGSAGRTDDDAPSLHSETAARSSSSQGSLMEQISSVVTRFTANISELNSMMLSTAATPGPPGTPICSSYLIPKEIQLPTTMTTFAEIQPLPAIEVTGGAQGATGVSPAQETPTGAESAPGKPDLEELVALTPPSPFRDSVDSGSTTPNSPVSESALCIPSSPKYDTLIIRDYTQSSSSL
UniProt P31421, 19-872: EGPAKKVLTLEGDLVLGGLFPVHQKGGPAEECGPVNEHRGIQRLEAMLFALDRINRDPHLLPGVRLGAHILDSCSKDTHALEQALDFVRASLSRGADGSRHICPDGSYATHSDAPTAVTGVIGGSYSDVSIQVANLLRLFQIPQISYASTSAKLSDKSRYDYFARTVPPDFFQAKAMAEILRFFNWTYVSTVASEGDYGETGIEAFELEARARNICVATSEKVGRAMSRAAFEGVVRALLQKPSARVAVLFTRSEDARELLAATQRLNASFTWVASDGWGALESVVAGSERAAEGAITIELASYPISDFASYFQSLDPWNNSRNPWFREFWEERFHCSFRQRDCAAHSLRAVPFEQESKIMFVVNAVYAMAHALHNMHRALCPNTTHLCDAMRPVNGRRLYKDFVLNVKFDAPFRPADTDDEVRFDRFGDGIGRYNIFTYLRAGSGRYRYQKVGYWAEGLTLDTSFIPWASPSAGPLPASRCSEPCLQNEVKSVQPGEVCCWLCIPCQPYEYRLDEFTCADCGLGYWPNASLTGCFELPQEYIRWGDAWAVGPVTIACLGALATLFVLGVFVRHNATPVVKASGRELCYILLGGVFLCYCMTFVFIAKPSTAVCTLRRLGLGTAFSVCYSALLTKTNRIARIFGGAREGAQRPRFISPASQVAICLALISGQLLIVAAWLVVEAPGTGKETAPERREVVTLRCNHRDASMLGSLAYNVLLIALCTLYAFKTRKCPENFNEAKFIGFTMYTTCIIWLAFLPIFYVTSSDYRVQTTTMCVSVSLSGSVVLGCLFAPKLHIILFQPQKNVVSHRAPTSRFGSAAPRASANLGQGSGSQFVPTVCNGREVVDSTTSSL
UniProt P31422, 23-879: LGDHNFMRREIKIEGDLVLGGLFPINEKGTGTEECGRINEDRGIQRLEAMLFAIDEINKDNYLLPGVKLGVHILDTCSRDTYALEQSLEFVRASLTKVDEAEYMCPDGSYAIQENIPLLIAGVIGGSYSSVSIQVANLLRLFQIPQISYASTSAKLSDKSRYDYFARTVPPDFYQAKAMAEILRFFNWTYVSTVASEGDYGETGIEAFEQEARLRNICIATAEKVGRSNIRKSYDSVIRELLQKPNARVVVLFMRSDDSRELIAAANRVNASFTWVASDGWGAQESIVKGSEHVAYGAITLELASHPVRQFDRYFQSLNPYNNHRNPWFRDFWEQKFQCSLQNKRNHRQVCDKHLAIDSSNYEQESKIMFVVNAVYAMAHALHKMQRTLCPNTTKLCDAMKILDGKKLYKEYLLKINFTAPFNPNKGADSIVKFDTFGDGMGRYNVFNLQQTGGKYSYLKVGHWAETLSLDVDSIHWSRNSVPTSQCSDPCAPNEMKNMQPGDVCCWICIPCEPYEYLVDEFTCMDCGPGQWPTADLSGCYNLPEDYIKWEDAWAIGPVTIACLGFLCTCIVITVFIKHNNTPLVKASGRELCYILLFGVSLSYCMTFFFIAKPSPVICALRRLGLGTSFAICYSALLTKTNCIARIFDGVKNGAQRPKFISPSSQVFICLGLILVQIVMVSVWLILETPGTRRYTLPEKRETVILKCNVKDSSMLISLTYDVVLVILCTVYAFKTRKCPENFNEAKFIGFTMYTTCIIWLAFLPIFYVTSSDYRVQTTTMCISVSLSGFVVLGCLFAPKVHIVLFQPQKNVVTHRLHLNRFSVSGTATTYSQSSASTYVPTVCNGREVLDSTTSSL
UniProt P31423, 33-912: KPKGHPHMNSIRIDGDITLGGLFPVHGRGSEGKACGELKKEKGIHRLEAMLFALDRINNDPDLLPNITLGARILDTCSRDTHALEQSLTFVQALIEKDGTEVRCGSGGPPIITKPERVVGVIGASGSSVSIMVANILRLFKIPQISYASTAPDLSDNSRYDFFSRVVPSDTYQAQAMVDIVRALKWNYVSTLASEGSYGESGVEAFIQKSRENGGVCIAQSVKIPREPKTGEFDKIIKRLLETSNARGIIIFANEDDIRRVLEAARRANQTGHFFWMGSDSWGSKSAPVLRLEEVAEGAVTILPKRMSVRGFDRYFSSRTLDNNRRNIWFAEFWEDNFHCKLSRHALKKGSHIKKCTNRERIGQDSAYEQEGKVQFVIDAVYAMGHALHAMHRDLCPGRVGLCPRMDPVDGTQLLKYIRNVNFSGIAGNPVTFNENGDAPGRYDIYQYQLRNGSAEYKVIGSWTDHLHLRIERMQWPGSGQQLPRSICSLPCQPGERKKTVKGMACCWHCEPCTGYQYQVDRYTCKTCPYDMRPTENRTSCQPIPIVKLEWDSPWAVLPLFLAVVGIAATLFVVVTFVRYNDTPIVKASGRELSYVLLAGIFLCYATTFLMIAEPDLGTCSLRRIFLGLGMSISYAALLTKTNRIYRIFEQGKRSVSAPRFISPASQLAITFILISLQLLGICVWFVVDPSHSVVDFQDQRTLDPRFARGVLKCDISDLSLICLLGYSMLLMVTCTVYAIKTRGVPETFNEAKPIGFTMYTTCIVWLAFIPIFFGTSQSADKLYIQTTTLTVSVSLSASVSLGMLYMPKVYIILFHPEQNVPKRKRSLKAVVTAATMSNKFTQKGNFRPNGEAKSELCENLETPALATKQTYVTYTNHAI
UniProt P35349, 24-871: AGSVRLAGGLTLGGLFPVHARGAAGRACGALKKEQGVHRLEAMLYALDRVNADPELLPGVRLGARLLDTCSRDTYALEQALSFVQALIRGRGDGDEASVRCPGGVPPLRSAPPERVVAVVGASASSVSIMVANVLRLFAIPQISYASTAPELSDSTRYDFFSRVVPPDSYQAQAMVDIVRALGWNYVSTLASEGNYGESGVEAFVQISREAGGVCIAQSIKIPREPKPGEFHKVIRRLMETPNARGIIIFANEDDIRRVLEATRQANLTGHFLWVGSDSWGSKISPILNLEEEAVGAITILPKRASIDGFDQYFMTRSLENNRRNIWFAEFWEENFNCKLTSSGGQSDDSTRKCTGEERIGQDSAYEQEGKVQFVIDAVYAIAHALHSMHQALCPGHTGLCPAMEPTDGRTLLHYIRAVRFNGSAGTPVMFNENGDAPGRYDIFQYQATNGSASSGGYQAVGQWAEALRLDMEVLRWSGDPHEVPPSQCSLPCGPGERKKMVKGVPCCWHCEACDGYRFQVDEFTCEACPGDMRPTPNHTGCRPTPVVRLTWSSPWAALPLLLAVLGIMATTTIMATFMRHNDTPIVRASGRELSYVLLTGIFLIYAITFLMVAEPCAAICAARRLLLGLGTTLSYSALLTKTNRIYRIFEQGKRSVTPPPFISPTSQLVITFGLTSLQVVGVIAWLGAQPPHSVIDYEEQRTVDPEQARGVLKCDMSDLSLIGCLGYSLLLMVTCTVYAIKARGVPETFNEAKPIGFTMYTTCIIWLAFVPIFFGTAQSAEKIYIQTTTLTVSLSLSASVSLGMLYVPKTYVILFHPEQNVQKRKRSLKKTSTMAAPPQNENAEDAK

Legend:
[1] = molecular target: T1, rat mGlu5 receptor (Rattus norvegicus, UniProt P31424); experiment: Intracellular Ca2+ response in rat mGlu5 receptor expressing CHO-dhfr− cells (FLIPR); assay type: cell-based; settings: 10 μM compound, data not shown
T1 construct: host or cells: CHO-dhfr- cells
Procedure: L929sA cells stably expressing the human mGlu1a receptor were obtained as described in Lavreysen et al., Mol. Pharmacol. 61:1244-1254, 2002 and were cultured in Glutamax-I medium supplemented with 10% heat inactivated dialysed foetal calf serum, 0.1 mg/ml streptomycin sulphate and 100 units/ml penicillin. CHO-dhfr^− cells stably expressing the rat mGlu1a, -2, -3, -4, -5 and -6 receptor were a kind gift from S. Nakanishi (Tokyo University, Japan) and were grown in DMEM with Glutamax-I with 10% heat inactivated dialysed foetal calf serum, 0.4 mM L-prolin, 0.2 mg/ml streptomycin sulphate and 200 units/ml penicillin. Cells were kept in an atmosphere of 37° C. and 5% CO2.
Intracellular calcium ion levels ([Ca^2+]i) in human mGlu1a receptor expressing L929sA cells were measured using the Fluorometric Imaging Plate Reader (FLIPR, Molecular Devices, CA, USA), as described in Lavreysen et al., Mol. Pharmacol. 61:1244-1254, 2002. The same procedure was followed for CHO-dhfr^− cells expressing the rat mGlu1a receptor. For the rat mGlu5 receptor, cells were seeded at 30.000 cells/well 2 days before the experiment.

[2] = molecular target: T2, rat mGlu2 receptor (Rattus norvegicus, UniProt P31421); experiment: [35S]GTPγS binding to membranes from CHO-dhfr− cells expressing the rat mGlu2 receptor; assay type: biochemical; settings: 10 μM compound together with glutamate
T2 construct: host or cells: CHO-dhfr- cells
Procedure: (§1) Confluent cells were washed in ice-cold phosphate-buffered saline and stored at −20° C. until membrane preparation. After thawing, cells were suspended in 50 mM Tris-HCl, pH 7.4 and collected through centrifugation for 10 min at 23,500 g at 4° C. The cells were lysed in 10 mM hypotonic Tris-HCl, pH 7.4. After recentrifugation for 20 min at 30,000 g at 4° C., the pellet was homogenized with an Ultra Turrax homogenizer in 50 mM Tris-HCl, pH 7.4. Protein concentrations were measured by the Bio-Rad protein assay using bovine serum albumin as standard.
(§2) Membranes were thawed on ice and diluted in 10 mM HEPES acid, 10 mM HEPES salt, pH 7.4, containing 100 mM NaCl, 3 mM MgCl2, 3 μM GDP and 10 μg/ml saponine. Assay mixtures contained 10 μg of membrane protein and were pre-incubated with compounds or buffer for 5 min at 37° C. […] [^35S]GTPγS was added to a final concentration of 0.1 nM for another 30 min at 37° C. Reactions were terminated by rapid filtration through Unifilter-96 GF/B filter plates (Packard, Meriden, Conn.) using a 96-well Packard filtermate harvester. Filters were washed 2 times with ice-cold 10 mM NaH2PO4/10 mM Na2HPO4 buffer, pH 7.4. Filter-bound radioactivity was counted in a Microplate Scintillation and Luminesence Counter from Packard.

[3] = molecular target: T3, rat mGlu3 receptor (Rattus norvegicus, UniProt P31422); experiment: [35S]GTPγS binding to membranes from CHO-dhfr− cells expressing the rat mGlu3 receptor; assay type: biochemical; settings: 10 μM compound together with glutamate
T3 construct: host or cells: CHO-dhfr- cells
Procedure: as §1, §2

[4] = molecular target: T4, rat mGlu4 receptor (Rattus norvegicus, UniProt P31423); experiment: [35S]GTPγS binding to membranes from CHO-dhfr− cells expressing the rat mGlu4 receptor; assay type: biochemical; settings: 10 μM compound together with glutamate
T4 construct: host or cells: CHO-dhfr- cells
Procedure: as §1, §2

[5] = molecular target: T5, rat mGlu6 receptor (Rattus norvegicus, UniProt P35349); experiment: [35S]GTPγS binding to membranes from CHO-dhfr− cells expressing the rat mGlu6 receptor; assay type: biochemical; settings: 10 μM compound together with glutamate
T5 construct: host or cells: CHO-dhfr- cells
Procedure: as §1, §2

Compound: O=C(Cc1ccccc1)c1ccc2nc3c(cc2c1)CCCO3 [Compound A]
- EC50 and Emax value of glutamate-induced intracellular Ca2+ mobilization when compound added together with glutamate [1]: did not change
- glutamate EC50 upon addition of compound (positive allosteric modulation) [2]: not altered
- glutamate EC50 upon addition of compound (positive allosteric modulation) [3]: not altered
- glutamate EC50 upon addition of compound (positive allosteric modulation) [4]: not altered
- glutamate EC50 upon addition of compound (positive allosteric modulation) [5]: not altered
